No constants are given. Whether binding was seen depends on the method and setting. In cells and extracts the contact can be indirect. These calls come from enrichment with a bait or labelling near it, and not all partners need be listed. For part of these data: No binding means not detected with the bait. For part of these data: Sequences can lack the tags named with a protein.
T1: AP4E1-BirA* (human) (UniProt Q9UPM8)
T1 sequence: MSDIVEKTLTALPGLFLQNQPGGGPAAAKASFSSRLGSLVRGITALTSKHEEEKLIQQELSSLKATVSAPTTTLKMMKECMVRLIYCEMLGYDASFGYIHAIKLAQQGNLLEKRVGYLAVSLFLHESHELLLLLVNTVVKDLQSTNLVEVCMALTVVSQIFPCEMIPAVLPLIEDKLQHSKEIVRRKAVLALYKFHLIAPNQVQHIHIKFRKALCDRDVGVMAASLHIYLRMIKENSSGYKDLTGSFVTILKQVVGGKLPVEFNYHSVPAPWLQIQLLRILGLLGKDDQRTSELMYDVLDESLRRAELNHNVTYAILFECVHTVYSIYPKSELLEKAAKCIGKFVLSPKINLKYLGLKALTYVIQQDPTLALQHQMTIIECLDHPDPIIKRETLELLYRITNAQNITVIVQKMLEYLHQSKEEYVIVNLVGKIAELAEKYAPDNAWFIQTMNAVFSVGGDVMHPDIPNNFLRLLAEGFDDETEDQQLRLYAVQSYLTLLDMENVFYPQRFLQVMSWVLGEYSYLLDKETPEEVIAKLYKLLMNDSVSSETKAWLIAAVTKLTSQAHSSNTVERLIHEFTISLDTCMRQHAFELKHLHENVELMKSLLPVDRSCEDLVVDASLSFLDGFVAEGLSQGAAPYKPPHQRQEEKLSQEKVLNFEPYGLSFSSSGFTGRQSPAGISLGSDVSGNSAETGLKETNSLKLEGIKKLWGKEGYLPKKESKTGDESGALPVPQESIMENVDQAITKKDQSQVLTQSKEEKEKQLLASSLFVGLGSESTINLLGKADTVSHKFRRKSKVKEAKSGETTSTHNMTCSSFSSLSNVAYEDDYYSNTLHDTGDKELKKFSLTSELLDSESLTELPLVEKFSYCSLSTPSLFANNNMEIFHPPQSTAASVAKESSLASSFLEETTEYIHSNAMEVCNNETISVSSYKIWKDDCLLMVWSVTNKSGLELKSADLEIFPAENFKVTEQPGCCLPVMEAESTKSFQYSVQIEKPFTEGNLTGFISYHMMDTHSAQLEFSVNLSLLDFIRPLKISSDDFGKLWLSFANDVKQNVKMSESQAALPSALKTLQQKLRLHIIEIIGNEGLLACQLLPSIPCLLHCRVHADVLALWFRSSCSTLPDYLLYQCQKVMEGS

Protein sequences, listed by entry. Tags and fused reporters are not part of them.
UniProt Q8N2Y8: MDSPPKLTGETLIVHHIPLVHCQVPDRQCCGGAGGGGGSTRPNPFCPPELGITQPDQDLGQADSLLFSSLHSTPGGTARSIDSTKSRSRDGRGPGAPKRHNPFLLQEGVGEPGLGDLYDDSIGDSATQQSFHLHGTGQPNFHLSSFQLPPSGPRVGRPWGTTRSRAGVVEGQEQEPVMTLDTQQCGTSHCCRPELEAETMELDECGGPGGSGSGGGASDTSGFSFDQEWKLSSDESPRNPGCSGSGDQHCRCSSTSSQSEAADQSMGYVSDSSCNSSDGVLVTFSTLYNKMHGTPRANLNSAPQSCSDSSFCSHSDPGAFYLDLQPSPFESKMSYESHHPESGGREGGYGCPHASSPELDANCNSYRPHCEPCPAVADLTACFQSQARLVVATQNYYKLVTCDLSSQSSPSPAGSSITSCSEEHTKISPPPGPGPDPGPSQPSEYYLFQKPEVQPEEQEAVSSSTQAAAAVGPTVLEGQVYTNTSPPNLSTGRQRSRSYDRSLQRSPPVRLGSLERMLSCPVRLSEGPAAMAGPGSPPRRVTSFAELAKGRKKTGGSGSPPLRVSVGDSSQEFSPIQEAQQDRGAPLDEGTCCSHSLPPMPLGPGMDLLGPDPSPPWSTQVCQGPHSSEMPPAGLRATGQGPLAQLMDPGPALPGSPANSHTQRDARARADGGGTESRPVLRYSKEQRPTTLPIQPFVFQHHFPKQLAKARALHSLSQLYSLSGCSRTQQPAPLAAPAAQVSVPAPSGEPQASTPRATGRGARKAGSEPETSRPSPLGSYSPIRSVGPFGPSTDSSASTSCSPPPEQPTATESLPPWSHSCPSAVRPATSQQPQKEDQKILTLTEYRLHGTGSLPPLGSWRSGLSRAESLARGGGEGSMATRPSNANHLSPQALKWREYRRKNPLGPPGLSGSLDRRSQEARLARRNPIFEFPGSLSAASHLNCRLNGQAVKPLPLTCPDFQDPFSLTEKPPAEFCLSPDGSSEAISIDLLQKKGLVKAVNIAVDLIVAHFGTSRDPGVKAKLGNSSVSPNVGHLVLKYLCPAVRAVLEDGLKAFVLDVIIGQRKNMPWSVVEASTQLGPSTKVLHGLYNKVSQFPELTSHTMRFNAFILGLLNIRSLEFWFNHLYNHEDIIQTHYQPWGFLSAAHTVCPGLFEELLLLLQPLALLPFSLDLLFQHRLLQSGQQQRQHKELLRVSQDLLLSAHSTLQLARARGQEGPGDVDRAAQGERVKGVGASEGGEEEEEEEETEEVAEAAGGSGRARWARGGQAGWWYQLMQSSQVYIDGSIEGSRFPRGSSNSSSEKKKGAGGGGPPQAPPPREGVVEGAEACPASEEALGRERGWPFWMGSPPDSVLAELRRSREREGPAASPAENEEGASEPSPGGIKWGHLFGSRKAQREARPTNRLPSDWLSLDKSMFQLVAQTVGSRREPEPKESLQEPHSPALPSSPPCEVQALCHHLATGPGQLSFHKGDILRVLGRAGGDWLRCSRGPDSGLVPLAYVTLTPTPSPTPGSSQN

T2: AP4M1-BirA* (human) (UniProt O00189)
T2 sequence: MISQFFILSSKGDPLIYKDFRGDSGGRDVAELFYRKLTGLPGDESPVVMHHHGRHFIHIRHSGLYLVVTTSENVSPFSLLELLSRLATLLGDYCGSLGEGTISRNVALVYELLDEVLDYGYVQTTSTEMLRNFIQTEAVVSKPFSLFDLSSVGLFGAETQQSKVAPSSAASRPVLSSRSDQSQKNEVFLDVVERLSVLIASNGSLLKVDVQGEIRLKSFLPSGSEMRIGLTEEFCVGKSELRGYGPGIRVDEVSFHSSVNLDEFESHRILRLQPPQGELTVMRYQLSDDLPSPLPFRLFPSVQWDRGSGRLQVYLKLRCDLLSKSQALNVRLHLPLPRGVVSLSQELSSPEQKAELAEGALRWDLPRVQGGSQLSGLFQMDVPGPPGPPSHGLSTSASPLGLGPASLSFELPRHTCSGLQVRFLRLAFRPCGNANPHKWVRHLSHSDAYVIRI

T3: TEPSIN-GFP (human) (UniProt Q96N21)
T3 sequence: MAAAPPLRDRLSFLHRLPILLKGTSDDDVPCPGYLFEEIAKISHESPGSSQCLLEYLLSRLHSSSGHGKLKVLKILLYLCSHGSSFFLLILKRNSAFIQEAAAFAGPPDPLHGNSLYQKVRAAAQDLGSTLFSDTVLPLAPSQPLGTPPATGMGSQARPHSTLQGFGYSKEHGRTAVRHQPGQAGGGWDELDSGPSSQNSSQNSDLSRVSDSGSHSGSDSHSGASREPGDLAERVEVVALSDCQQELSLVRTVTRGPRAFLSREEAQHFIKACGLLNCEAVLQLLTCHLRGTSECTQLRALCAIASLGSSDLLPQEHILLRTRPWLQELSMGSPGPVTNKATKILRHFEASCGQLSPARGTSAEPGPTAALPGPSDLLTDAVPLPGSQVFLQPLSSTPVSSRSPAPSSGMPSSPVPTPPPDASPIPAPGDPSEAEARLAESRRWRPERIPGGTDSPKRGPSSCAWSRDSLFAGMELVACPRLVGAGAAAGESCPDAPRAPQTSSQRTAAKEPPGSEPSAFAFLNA


What was measured:
[1] = molecular target: T1, AP4E1-BirA* (human); assay: proximity labelling; BioID: HeLa cells stably expressing the BirA*-tagged AP-4 subunit, 50 µM biotin for 24 h, RIPA lysis, streptavidin agarose, label-free quantitative MS against HeLa, HeLa BirA* and HeLa GFP-BirA* controls, triplicate, FDR 5%
[2] = molecular target: T2, AP4M1-BirA* (human); assay: as above
[3] = molecular target: T3, TEPSIN-GFP (human); assay: affinity purification with mass spectrometry; sensitive low-detergent immunoprecipitation of TEPSIN-GFP from HeLa homogenate with GFP-Trap A beads, PBS with 0.01% Triton X-100, 4 °C, SILAC comparison with parental HeLa
[4] = molecular target: T3, TEPSIN-GFP (human); assay: condition: only conventional immunoprecipitation protocol (PBS, 0.2% Triton X-100, 0.1% Tween-20); affinity purification with mass spectrometry; conventional immunoprecipitation of TEPSIN-GFP from HeLa lysate in PBS, 0.2% Triton X-100, 0.1% Tween-20, rabbit anti-GFP and Protein A sepharose, SILAC comparison with wild-type HeLa

Molecule | binding [1] | binding [2] | binding [3] | binding [4]
RUSC2 (RUN and SH3 domain-containing protein 2) (from UniProt Q8N2Y8 1-1516) | binds | binds | – | –
SERINC1 (Serine incorporator 1) (protein, UniProt Q9NRX5 1-453) MGSVLGLCSMASWIPCLCGSAPCLLCRCCPSGNNSTVTRLIYALFLLVGVCVACVMLIPGMEEQLNKIPGFCENEKGVVPCNILVGYKAVYRLCFGLAMFYLLLSLLMIKVKSSSDPRAAVHNGFWFFKFAAAIAIIIGAFFIPEGTFTTVWFYVGMAGAFCFILIQLVLLIDFAHSWNESWVEKMEEGNSRCWYAALLSATALNYLLSLVAIVLFFVYYTHPASCSENKAFISVNMLLCVGASVMSILPKIQESQPRSGLLQSSVITVYTMYLTWSAMTNEPETNCNPSLLSIIGYNTTSTVPKEGQSVQWWHAQGIIGLILFLLCVFYSSIRTSNNSQVNKLTLTSDESTLIEDGGARSDGSLEDGDDVHRAVDNERDGVTYSYSFFHFMLFLASLYIMMTLTNWYRYEPSREMKSQWTAVWVKISSSWIGIVLYVWTLVAPLVLTNRDFD | – | – | binds | no binding
ATG9A (Autophagy-related protein 9A) (protein, UniProt Q7Z3C6 1-839) MAQFDTEYQRLEASYSDSPPGEEDLLVHVAEGSKSPWHHIENLDLFFSRVYNLHQKNGFTCMLIGEIFELMQFLFVVAFTTFLVSCVDYDILFANKMVNHSLHPTEPVKVTLPDAFLPAQVCSARIQENGSLITILVIAGVFWIHRLIKFIYNICCYWEIHSFYLHALRIPMSALPYCTWQEVQARIVQTQKEHQICIHKRELTELDIYHRILRFQNYMVALVNKSLLPLRFRLPGLGEAVFFTRGLKYNFELILFWGPGSLFLNEWSLKAEYKRGGQRLELAQRLSNRILWIGIANFLLCPLILIWQILYAFFSYAEVLKREPGALGARCWSLYGRCYLRHFNELEHELQSRLNRGYKPASKYMNCFLSPLLTLLAKNGAFFAGSILAVLIALTIYDEDVLAVEHVLTTVTLLGVTVTVCRSFIPDQHMVFCPEQLLRVILAHIHYMPDHWQGNAHRSQTRDEFAQLFQYKAVFILEELLSPIVTPLILIFCLRPRALEIIDFFRNFTVEVVGVGDTCSFAQMDVRQHGHPQWLSAGQTEASVYQQAEDGKTELSLMHFAITNPGWQPPRESTAFLGFLKEQVQRDGAAASLAQGGLLPENALFTSIQSLQSESEPLSLIANVVAGSSCRGPPLPRDLQGSRHRAEVASALRSFSPLQPGQAPTGRAHSTMTGSGVDARTASSGSSVWEGQLQSLVLSEYASTEMSLHALYMHQLHKQQAQAEPERHVWHRRESDESGESAPDEGGEGARAPQSIPRSASYPCAAPRPGAPETTALHGGFQRRYGGITDPGTVPRVPSHFSRLPLGGWAEDGQSASRHPEPVPEEGSEDELPPQVHKV | binds | binds | binds | no binding

Further lines, results first:

binding [1] | binding [2] | binding [3] | binding [4] | Molecule
binds | binds | – | – | TEPSIN (protein, UniProt Q96N21 1-525) MAAAPPLRDRLSFLHRLPILLKGTSDDDVPCPGYLFEEIAKISHESPGSSQCLLEYLLSRLHSSSGHGKLKVLKILLYLCSHGSSFFLLILKRNSAFIQEAAAFAGPPDPLHGNSLYQKVRAAAQDLGSTLFSDTVLPLAPSQPLGTPPATGMGSQARPHSTLQGFGYSKEHGRTAVRHQPGQAGGGWDELDSGPSSQNSSQNSDLSRVSDSGSHSGSDSHSGASREPGDLAERVEVVALSDCQQELSLVRTVTRGPRAFLSREEAQHFIKACGLLNCEAVLQLLTCHLRGTSECTQLRALCAIASLGSSDLLPQEHILLRTRPWLQELSMGSPGPVTNKATKILRHFEASCGQLSPARGTSAEPGPTAALPGPSDLLTDAVPLPGSQVFLQPLSSTPVSSRSPAPSSGMPSSPVPTPPPDASPIPAPGDPSEAEARLAESRRWRPERIPGGTDSPKRGPSSCAWSRDSLFAGMELVACPRLVGAGAAAGESCPDAPRAPQTSSQRTAAKEPPGSEPSAFAFLNA
– | – | binds | no binding | SERINC3 (Serine incorporator 3) (protein, UniProt Q13530 1-473) MGAVLGVFSLASWVPCLCSGASCLLCSCCPNSKNSTVTRLIYAFILLLSTVVSYIMQRKEMETYLKKIPGFCEGGFKIHEADINADKDCDVLVGYKAVYRISFAMAIFFFVFSLLMFKVKTSKDLRAAVHNGFWFFKIAALIGIMVGSFYIPGGYFSSVWFVVGMIGAALFILIQLVLLVDFAHSWNESWVNRMEEGNPRLWYAALLSFTSAFYILSIICVGLLYTYYTKPDGCTENKFFISINLILCVVASIISIHPKIQEHQPRSGLLQSSLITLYTMYLTWSAMSNEPDRSCNPNLMSFITRITAPTLAPGNSTAVVPTPTPPSKSGSLLDSDNFIGLFVFVLCLLYSSIRTSTNSQVDKLTLSGSDSVILGDTTTSGASDEEDGQPRRAVDNEKEGVQYSYSLFHLMLCLASLYIMMTLTSWYSPDAKFQSMTSKWPAVWVKISSSWVCLLLYVWTLVAPLVLTSRDFS

Source: PMC6160451
